Results taken from PMC4358907.
Results are given in words; binding and its absence hold for the method and conditions named. Binding seen in cells or lysates may run through a third protein. Sequences can lack the tags named with a protein.

Target: T1, AtARP4 fused to nEYFP or cEYFP (Arabidopsis thaliana) (UniProt Q84M92)
T1 sequence: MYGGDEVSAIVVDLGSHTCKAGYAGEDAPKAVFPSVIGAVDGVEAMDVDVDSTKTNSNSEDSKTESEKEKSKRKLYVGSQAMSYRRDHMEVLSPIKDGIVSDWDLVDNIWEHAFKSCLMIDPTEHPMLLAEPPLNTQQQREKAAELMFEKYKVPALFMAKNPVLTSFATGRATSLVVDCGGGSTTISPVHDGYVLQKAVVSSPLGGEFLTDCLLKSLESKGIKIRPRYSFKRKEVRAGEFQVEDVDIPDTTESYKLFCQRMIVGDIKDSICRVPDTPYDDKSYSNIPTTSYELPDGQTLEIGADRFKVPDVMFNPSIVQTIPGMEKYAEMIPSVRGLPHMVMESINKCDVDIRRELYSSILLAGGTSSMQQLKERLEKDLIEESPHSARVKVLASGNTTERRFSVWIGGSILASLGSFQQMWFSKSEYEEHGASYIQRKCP
Assay: split reporter; BiFC in Arabidopsis mesophyll protoplasts; proteins fused to the N-terminus of nEYFP and cEYFP; ECFP as transfection control; overnight incubation, confocal microscopy

- binding: no binding
B1: AtYAF9B (longer splice variant) fused to nEYFP or cEYFP (protein, UniProt F4IPK2 1-268)
chain: MESDIEILSEADASMRKLRIFGIDDREDENGRRRIKDVEVYVPIVCGSIAFYLGKKATEYRTHKWTVYVRGATNEDLGVVIKRVIFHLHPSFNNPTRVVDAPPFALSECGWGEFKIDITVFFHTDVCEKKLELSHVLKLNPENAYGPIPKSIKIPVVAESYNEVVFPDPFESFVARVHNHPAIQISNIPDGLNLPPPGVADTYYLMEKGDTKEHPLSPWFLKFSEVEELFKLTAARQKVQADIAKLKRQLIMVDGQPEGLESSSGYEC
